No constants are given. Whether binding was seen depends on the method and setting. Some entries that bind do so weakly or less than the wild type.
Target: T1, enoyl-CoA hydratase short chain 1 (ECHS1) (human), P30084
T1 chain: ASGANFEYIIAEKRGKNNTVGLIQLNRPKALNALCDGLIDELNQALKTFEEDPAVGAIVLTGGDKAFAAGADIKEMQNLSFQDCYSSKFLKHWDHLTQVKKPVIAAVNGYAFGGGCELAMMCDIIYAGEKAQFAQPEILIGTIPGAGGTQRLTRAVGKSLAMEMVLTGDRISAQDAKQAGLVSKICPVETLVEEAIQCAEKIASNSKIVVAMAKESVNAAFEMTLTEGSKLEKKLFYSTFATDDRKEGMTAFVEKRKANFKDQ
Test: native gel or EMSA; native gel electrophoresis of purified recombinant ECHS1, detected by Western blot; both purified
Conditions: remark: other sources report otherwise

B1: enoyl-CoA hydratase short chain 1 (ECHS1), P30084 28-290 (enzyme)
chain: T1 chain
  binding: binds

Source: paper PMC10050154, “Coenzyme A binding sites induce proximal acylation across protein families” (Scientific Reports, 2023)
